Measurements from paper PMC11136664.
Results are given in words; binding and its absence hold for the method and conditions named. Some results given as binding are weak or reduced against the parent protein; the word gives no strength.

Chains of the proteins cited; added tags and fusions are not shown.
UniProt Q9LNJ5: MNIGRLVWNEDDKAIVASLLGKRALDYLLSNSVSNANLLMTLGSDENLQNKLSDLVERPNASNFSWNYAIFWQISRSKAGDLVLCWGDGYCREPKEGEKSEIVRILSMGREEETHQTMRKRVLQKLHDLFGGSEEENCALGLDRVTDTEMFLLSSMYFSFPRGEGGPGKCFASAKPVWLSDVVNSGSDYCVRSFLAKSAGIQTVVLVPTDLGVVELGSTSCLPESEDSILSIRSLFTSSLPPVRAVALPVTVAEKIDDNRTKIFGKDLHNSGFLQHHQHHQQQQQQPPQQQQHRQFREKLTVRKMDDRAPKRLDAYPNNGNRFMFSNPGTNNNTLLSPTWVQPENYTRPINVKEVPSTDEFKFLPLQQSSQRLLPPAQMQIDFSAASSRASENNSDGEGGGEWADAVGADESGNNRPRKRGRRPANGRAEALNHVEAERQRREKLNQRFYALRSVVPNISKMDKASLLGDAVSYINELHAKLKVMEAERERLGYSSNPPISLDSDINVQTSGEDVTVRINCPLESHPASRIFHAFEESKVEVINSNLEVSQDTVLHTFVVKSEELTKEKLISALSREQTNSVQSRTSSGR

Columns and labels:
[1] = biological target: JASMONATE-ASSOCIATED MYC-LIKE 2 (JAM2), GAL4-DNA binding domain fusion (A. thaliana) (UniProt Q9LNJ5); test: two-hybrid; growth assay in liquid culture for histidine autotrophy (-L,-W,-H), JAM2 fused to Gal4-BD, partners fused to Gal4-AD; growth rate µ over the first 24 h; at 25 °C and above (30 °C)
[2] = biological target: JASMONATE-ASSOCIATED MYC-LIKE 2 (JAM2), GAL4-DNA binding domain fusion (A. thaliana) (UniProt Q9LNJ5); test: two-hybrid; growth assay in liquid culture for histidine autotrophy (-L,-W,-H), JAM2 fused to Gal4-BD, partners fused to Gal4-AD; growth rate µ over the first 24 h; at 20 °C

- binding [1]: binds
- binding [2]: binds
Substance: JASMONATE-ASSOCIATED MYC-LIKE 2 (JAM2), GAL4-DNA binding domain fusion (from UniProt Q9LNJ5 1-590)
